Laboratory results as given in publication PMC12327844.
These are yes or no findings as the source states them, for the method shown. Some binding calls cover weakened binding; strength is not graded here. Where a sequence is shown, tags or fusion partners need not be part of it. One block for each binder: values may come before it.

Experiments:
[1] = target: T1, GST-tagged BsFlhG (Bacillus subtilis NCIB 3610) (UniProt P40742); assay: pull-down; GST pulldown, nucleotide not stated for these panels (Figure S6, Figure 3b); GST-tagged bait on glutathione agarose beads; SEC buffer, room temperature; Coomassie-stained SDS-PAGE; both purified
T1 sequence: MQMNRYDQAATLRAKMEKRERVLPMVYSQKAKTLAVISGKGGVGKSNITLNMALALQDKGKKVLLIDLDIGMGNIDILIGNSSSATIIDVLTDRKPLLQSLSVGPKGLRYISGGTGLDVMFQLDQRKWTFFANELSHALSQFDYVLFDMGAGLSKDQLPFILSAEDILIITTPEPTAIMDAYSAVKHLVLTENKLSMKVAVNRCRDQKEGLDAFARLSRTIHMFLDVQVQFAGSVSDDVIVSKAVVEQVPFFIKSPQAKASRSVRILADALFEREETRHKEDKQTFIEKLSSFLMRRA

[2] = target: T2, BsGpsB (yeast two-hybrid fusion) (Bacillus subtilis NCIB 3610) (UniProt P0CI74); assay: two-hybrid; Gal4 DNA-binding domain bait and Gal4 activation domain prey in yeast PJ69-4A; growth on SC-His-Leu-Trp (HIS3 reporter), 3 days at 30°C
T2 sequence: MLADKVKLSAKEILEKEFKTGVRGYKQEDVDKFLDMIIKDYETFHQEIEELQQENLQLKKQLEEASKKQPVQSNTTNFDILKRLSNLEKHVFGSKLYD

- binding [1]: binds
B1: BsGpsB (recombinant prey) (protein, UniProt P0CI74 1-98)
chain: T2 sequence

- binding [2]: binds
B2: BsFlhG (yeast two-hybrid fusion) (protein, UniProt P40742 1-298)
chain: T1 sequence

- binding [2]: no binding
B3: BsMinD (yeast two-hybrid fusion) (protein, UniProt Q01464 1-268)
chain: MGEAIVITSGKGGVGKTTTSANLGTALAILGKRVCLVDTDIGLRNLDVVMGLENRIIYDLVDVVEGRCKMHQALVKDKRFDDLLYLMPAAQTSDKTAVAPEQIKNMVQELKQEFDYVIIDCPAGIEQGYKNAVSGADKAIVVTTPEISAVRDADRIIGLLEQEENIEPPRLVVNRIRNHLMKNGDTMDIDEIVQHLSIDLLGIVADDDEVIKASNHGEPIAMDPKNRASIAYRNIARRILGESVPLQVLEEQNKGMMAKIKSFFGVRS
